Consider 42 sequences from article PMC7819943, “Rice protein-binding microarrays: a tool to detect cis-acting elements near promoter regions in rice”.

The chains behind the UniProt entries cited, without tags or fusion partners.
UniProt Q0JBA9, entry or part of it: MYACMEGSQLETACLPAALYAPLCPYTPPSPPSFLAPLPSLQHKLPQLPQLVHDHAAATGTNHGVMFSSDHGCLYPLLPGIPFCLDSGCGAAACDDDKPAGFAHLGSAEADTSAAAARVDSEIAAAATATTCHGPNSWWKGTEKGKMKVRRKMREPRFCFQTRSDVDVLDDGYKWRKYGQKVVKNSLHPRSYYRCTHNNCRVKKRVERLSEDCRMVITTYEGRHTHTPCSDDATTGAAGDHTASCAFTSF

The other results are listed elsewhere or left out.

The assay concerns the target OsWRKY34 (Oryza sativa, UniProt Q0JBA9 1-250). As to the kind of experiment: protein-binding microarray (RPBM); PBS, 2% BSA, 51.3 ng/ul salmon testes DNA, 50 uM zinc acetate, 200 nM TF, 25 C, 1 h; high values mean tight binding. The note with it: protein: recombinant; tags: N-terminal polyhistidine and DsRed monomer fusion (pET32a); label: CyDye5-dUTP incorporated in the synthesized complementary strand; 3' TTTTT single-stranded linker to array surface; dsDNA, one strand shown. In short, it runs like this: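 Polyhistidine-tagged DsRed fusions of transcription factors, joined at the N-terminus, were expressed in E. coli BL21-CodonPlus and isolated on Ni–NTA. They were incubated at 200 nM for 1 h at 25 °C on a custom Agilent array, double-stranded and BSA-blocked, in PBS with 2% BSA, salmon testes DNA and 50 µM zinc acetate. The binding signal is per-feature fluorescence intensity (arbitrary units) read on an Axon 4000B scanner after washing.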
Take “AGACAAACTCTGGTTTCCGTGTCCAACGTTTGACCGTTCGCGGAGTCACCTAGTGCAG”: the binding signal is 11300 fluorescence intensity (a.u.).
Then “CCTTGCGCCTCCGCTTCGCGAGCCTCATCTCCTCGATCTCCGGAGTCACCTAGTGCAG”, with 9140 fluorescence intensity (a.u.); and “CAGCTTCCTAATCACCCTCACATGCATGGTTGCTCGTCATCGGAGTCACCTAGTGCAG”, with 10700 fluorescence intensity (a.u.).
Regarding “AGTTTCCAAGTTTCCACTGTATATGTGGTTTGCACTACATCGGAGTCACCTAGTGCAG”, the binding signal is 8780 fluorescence intensity (a.u.).
In the case of “AATGTACGATAATTATTTTCAGTTTAATTTTTTTTACAACCGGAGTCACCTAGTGCAG”, the binding signal was 8320 fluorescence intensity (a.u.).
Regarding “CATCGCCACCACCGCAGCCGCCTCTCAATTAGGAACACGTCGGAGTCACCTAGTGCAG”, the binding signal is 10300 fluorescence intensity (a.u.).
Consider “ATCTTCTTCTATGCATGAAACAGCCAACTTGATCATTGTTCGGAGTCACCTAGTGCAG”, for which the binding signal was 8350 fluorescence intensity (a.u.).
As for “CCACAACACCGCAACACACTGTCCTTGCTTCTTCATTGATCGGAGTCACCTAGTGCAG”, the binding signal is 8750 fluorescence intensity (a.u.).
For “ATCTTCATATGTTTTACTAGCATGCTAATTTGTATGACTCCGGAGTCACCTAGTGCAG”, the binding signal is 11400 fluorescence intensity (a.u.).
For “GAGCCCGACGAGTCCGAGACCAGCTGCTTCCGCTCCCACTCGGAGTCACCTAGTGCAG”, the binding signal was 8780 fluorescence intensity (a.u.).
Take “AGTTTGTGCTCCTTCCCACCTGCCACCTTCTTCATCTCCTCGGAGTCACCTAGTGCAG”: the binding signal was 8060 fluorescence intensity (a.u.).
With “ATATTCTATTTCCCTGACGTGTTTATCGGAACCGTCATGACGGAGTCACCTAGTGCAG”, the binding signal is 8600 fluorescence intensity (a.u.).
Consider “AGTCCGTTTCTAAGTATATAGTTGCTGGTCGCTTGTATTTCGGAGTCACCTAGTGCAG”, for which the binding signal is 10200 fluorescence intensity (a.u.).
On to “CATGGTGTTGTGTGACTTGTTCCTCATGTTCTTGCATGTCCGGAGTCACCTAGTGCAG”, for which the binding signal is 9660 fluorescence intensity (a.u.).
On to “CTCGCACCCCAAAGTTGGCACCACTCTCTCTCTCTCTCTTCGGAGTCACCTAGTGCAG”, for which the binding signal is 8750 fluorescence intensity (a.u.).
In the case of “AACATGATTTAACAGGTAACAGTCGCCCATGCCATTCTTGCGGAGTCACCTAGTGCAG”, the binding signal was 8270 fluorescence intensity (a.u.).
Regarding “GGGCGGCGATCTCCATCGCAGCGGAGGGGAGGGGATCCTGCGGAGTCACCTAGTGCAG”, the binding signal was 11400 ± 717 fluorescence intensity (a.u.).
On to “TCCTCGTCTTGCTCCACAGTACACTCGCACACCCACCACACGGAGTCACCTAGTGCAG”, for which the binding signal was 9550 fluorescence intensity (a.u.).
In the case of “ATCACCTGTTCGCCGTGGATCCCGTGCGGCCGCTATCTCGCGGAGTCACCTAGTGCAG”, the binding signal is 8710 fluorescence intensity (a.u.).
With “ATGGGTTAATTTTGTGGGAAGAAATTGCCCATTGCTAATGCGGAGTCACCTAGTGCAG”, the binding signal was 8240 fluorescence intensity (a.u.).
As for “CCGGTTGAATTTTTCGTGTATTCTCTTTCGGCATACATGTCGGAGTCACCTAGTGCAG”, the binding signal was 8390 fluorescence intensity (a.u.).
As for “GCAATGAGGAGGATGTGCTCGTGGGCTTCACCGTTGACGACGGAGTCACCTAGTGCAG”, the binding signal is 8300 fluorescence intensity (a.u.).
For the sequence “GCATGTATCAATTTTCTGTCCTTACAATTTTTCTATAAACCGGAGTCACCTAGTGCAG”, the binding signal was 8970 fluorescence intensity (a.u.).
Take “GTATTTAATTAGCTCCTCGTCTTGTTCTGCTAAGCTACTACGGAGTCACCTAGTGCAG”: the binding signal was 9460 fluorescence intensity (a.u.).
“TTTCTAGCATTTTCCATTTCCTGGTGCACCATTCTTCCAACGGAGTCACCTAGTGCAG”: the binding signal is 9880 fluorescence intensity (a.u.).
Then “GACCGGTTCCATCGTCTCCGCCGTGGACCAGCGCCAACCCCGGAGTCACCTAGTGCAG”, with 10700 fluorescence intensity (a.u.); and “GATTCCACACAATATTGATCATCTCTCTCTCTCTCTCTCTCGGAGTCACCTAGTGCAG”, with 10000 fluorescence intensity (a.u.).
Take “TAGTGGTGGTGCATATGGAGGGTTTTGTGATTTTGACACCCGGAGTCACCTAGTGCAG”: the binding signal was 8380 fluorescence intensity (a.u.).
In the case of “TTCTTGTTGGGCCGAAATGTTTATGATGTCTTTTGATTCTCGGAGTCACCTAGTGCAG”, the binding signal is 8850 fluorescence intensity (a.u.).
For “ACCCGTTGTACACCTCACCTCACGCTCAAAGGCAACGCAACGGAGTCACCTAGTGCAG”, the binding signal was 8700 fluorescence intensity (a.u.).
“TTCAATACTGGGCCTTGCTTTTTCATATTTTGTTGCCTCTCGGAGTCACCTAGTGCAG”: the binding signal is 10000 fluorescence intensity (a.u.).
Then “CTACACGCGTTACGGACCTTCCGTTATACTCCTTCGGTTTCGGAGTCACCTAGTGCAG”, with 12000 fluorescence intensity (a.u.); and “GCGCGCTAATCCTCATGCTAATCGTGTTTTACTCTGTAACCGGAGTCACCTAGTGCAG”, with 9340 fluorescence intensity (a.u.); and “GGTTTCGGTTAACTTTTGTGCACACTCGCCAGTGAGAGTTCGGAGTCACCTAGTGCAG”, with 12300 fluorescence intensity (a.u.).
Then “ACTCCATTGGACTCCAATAGCACTATCACACTCGCATTTCCGGAGTCACCTAGTGCAG”, with 10600 fluorescence intensity (a.u.); and “AACGCCAGGAATCAATACTGTAGTACCGTACATCCAGCGTCGGAGTCACCTAGTGCAG”, with 8260 fluorescence intensity (a.u.).
Then “TATACTAGTTTATTTCTCTACCATCTACTTTTATACTAATCGGAGTCACCTAGTGCAG”, with 9040 fluorescence intensity (a.u.); and “CAACCTTAAACTTTGCTAATAGCCTACTCCTTTCATTATACGGAGTCACCTAGTGCAG”, with 8760 fluorescence intensity (a.u.); and “GCTCTAAGGGTGGGTTTTGATGGGAGGTTTTGGATGGATACGGAGTCACCTAGTGCAG”, with 14000 fluorescence intensity (a.u.).
For the sequence “ATCAAATGGTCATTCCAACGGTTGTCCTGTGCTTTTGTAACGGAGTCACCTAGTGCAG”, the binding signal is 8020 fluorescence intensity (a.u.).
Turning to “TGCTTCGCCTCGGCCACGCTGCGGCCACCTCCTTTCTGCCCGGAGTCACCTAGTGCAG”, the binding signal was 8260 fluorescence intensity (a.u.).
Take “GCCAAAACATGCCTTTTCAACCTTTGTTTATACCTAATTACGGAGTCACCTAGTGCAG”: the binding signal is 8510 fluorescence intensity (a.u.).
